What all share (experiment): co-IP; AvrE1-C’ wild type and k1k2 mutant with PP2A B’ subunits co-expressed in N. benthamiana (S4B Fig); which partner was pulled down is not told
In assay [1] the target is T1, GFP-B’α (Arabidopsis PP2A B’α subunit) (Arabidopsis thaliana) (UniProt O04375).
T1 sequence: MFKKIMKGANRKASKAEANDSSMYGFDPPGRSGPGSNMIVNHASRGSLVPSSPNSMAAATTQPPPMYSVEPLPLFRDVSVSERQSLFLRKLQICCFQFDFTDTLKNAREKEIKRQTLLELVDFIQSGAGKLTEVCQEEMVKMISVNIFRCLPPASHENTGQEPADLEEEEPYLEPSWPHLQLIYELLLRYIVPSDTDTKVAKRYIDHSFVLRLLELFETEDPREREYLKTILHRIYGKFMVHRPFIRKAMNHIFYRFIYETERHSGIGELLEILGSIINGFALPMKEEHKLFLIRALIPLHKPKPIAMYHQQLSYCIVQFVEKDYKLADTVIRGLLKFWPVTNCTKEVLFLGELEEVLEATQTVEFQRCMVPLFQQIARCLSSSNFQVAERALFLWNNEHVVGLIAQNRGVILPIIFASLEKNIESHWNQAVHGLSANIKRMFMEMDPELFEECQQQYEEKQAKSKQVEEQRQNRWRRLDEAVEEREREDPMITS

Assay [2] addresses T2, GFP-B’β (Arabidopsis PP2A B’β subunit) (Arabidopsis thaliana) (UniProt O04376).
T2 sequence: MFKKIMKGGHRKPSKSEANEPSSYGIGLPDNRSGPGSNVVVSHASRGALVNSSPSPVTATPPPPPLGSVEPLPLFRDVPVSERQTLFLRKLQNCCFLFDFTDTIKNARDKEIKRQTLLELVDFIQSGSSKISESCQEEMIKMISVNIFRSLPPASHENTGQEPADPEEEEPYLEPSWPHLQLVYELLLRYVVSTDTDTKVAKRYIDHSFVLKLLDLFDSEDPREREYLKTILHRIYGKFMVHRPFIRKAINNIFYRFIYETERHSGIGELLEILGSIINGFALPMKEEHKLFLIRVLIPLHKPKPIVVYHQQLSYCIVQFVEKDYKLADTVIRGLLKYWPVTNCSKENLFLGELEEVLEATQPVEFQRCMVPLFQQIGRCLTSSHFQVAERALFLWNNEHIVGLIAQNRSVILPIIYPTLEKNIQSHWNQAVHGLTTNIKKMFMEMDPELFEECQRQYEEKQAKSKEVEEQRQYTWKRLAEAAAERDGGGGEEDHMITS

The target of assay [3] is T3, GFP-B’η (Arabidopsis PP2A B’η subunit) (Arabidopsis thaliana) (UniProt Q9LU89).
T3 sequence: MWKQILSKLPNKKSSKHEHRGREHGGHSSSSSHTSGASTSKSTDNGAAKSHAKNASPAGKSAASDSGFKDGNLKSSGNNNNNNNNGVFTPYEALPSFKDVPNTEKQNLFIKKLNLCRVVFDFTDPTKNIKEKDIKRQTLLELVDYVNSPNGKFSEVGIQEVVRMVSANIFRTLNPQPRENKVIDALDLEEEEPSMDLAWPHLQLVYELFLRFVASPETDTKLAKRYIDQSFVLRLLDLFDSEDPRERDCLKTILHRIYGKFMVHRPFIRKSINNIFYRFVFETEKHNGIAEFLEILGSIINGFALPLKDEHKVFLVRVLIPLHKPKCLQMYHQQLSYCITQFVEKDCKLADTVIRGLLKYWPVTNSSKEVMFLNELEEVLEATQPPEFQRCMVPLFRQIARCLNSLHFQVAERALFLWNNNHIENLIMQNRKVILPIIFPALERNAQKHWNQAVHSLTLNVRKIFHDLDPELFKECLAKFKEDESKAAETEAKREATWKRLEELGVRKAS

No constants are given. Whether binding was seen depends on the method and setting. In cells and extracts the contact can be indirect. A result given as binding can be weak or reduced; the word gives no strength. Where a sequence is shown, tags or fusion partners need not be part of it.

As to “AvrE1-C’ fragment k1k2 mutant (KK1787-88AA) (Pseudomonas syringae pv. tomato DC3000) (domain or fragment)”, the values for the binding result in assay [1], in assay [2] and in assay [3] were “binds”, “binds” and “binds weakly”, respectively.

(Values after article PMC4871590.)
